Data reported in article PMC4872748, “NG2 proteoglycan as a pericyte target for anticancer therapy by tumor vessel infarction with retargeted tissue factor” (Oncotarget, 2016).
No constants are given. Whether binding was seen depends on the method and setting. Some results given as binding are weak or reduced against the parent protein; the word gives no strength.

Chains of the proteins cited; added tags and fusions are not shown. Residues count along the entry.
UniProt Q6UVK1, residues 30-2322: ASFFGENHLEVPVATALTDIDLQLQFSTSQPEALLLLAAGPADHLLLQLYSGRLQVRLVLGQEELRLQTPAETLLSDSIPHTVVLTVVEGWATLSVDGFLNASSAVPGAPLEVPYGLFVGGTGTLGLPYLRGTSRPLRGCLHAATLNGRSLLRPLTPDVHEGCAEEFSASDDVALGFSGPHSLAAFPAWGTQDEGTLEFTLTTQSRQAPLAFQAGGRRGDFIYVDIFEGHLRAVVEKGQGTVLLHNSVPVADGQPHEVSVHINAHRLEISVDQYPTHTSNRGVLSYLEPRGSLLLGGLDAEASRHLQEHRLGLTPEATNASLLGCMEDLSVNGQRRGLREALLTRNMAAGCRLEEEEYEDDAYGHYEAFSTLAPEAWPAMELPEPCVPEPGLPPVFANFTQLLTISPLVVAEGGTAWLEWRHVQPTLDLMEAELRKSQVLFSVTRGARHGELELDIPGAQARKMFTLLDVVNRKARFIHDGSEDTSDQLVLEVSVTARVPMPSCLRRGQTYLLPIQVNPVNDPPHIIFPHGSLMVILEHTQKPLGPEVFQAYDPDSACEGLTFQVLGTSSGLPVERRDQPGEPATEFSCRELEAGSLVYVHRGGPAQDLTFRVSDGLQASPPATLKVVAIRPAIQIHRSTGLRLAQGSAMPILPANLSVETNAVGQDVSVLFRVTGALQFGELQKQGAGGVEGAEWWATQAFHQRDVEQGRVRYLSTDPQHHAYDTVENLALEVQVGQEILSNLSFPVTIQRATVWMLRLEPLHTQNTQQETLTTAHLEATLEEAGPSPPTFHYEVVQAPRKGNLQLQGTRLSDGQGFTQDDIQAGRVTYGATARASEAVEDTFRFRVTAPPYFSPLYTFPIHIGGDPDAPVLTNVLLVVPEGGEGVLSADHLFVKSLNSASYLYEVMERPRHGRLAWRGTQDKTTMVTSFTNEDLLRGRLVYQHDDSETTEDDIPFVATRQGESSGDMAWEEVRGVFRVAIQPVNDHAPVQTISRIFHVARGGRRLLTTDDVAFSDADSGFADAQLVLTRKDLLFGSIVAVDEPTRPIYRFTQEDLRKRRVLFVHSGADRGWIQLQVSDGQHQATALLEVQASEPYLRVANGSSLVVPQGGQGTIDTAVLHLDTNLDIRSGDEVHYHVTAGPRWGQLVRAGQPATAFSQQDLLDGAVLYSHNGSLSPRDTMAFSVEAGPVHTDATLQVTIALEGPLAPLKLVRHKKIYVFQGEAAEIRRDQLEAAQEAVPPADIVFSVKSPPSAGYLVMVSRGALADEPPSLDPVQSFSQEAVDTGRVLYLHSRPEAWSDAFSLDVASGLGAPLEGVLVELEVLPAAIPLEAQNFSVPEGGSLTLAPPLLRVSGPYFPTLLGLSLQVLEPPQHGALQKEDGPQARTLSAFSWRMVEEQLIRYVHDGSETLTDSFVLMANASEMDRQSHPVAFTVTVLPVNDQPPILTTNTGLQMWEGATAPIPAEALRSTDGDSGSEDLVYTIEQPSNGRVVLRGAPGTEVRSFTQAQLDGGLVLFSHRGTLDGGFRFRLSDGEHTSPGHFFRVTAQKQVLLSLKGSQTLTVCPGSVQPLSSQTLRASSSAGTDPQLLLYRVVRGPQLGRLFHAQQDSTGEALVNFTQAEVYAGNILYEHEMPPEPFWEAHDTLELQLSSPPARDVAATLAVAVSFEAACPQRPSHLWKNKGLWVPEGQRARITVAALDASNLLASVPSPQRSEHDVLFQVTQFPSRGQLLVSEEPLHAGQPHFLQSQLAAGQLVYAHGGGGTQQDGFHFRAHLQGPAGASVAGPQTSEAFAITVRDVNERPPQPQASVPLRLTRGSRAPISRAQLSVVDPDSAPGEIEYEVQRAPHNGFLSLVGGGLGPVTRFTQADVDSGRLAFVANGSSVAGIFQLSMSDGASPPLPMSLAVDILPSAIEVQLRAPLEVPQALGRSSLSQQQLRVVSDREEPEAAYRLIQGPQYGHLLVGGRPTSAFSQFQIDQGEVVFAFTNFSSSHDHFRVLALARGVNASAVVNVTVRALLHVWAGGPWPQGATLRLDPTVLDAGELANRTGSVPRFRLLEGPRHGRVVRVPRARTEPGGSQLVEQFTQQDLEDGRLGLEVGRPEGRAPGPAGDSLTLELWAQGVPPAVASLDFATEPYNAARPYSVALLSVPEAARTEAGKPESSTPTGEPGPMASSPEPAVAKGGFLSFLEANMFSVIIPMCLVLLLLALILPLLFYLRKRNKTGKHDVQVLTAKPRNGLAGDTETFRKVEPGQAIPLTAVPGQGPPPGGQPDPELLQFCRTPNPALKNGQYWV

Columns and labels:
[1] = molecular target: NG2 (nerve/glial antigen 2) proteoglycan (human (endogenous in HuAoSMC and G361)) (UniProt Q6UVK1); test: flow cytometry on cells; HuAoSMC pre-incubated with 20-fold excess of …-decapeptide for 16 min at 37 C, then tTF-TAA; detection with anti-His-FITC antibody; only the binder purified
[2] = molecular target: NG2 (nerve/glial antigen 2) proteoglycan (human (endogenous in HuAoSMC and G361)) (UniProt Q6UVK1); test: flow cytometry on cells; G361-melanoma cells pre-incubated with 4- to 20-fold excess (200-1000 uM) of …-decapeptide for 16 min at 37 C, then tTF-TAA; detection with anti-His-FITC antibody; only the binder purified

binding [1]: binds
binding [2]: binds
B1: …-decapeptide (peptide)
peptide: TAASGVRSMH
